Patent publication US20070167421A1, “Pyrimidine derivatives and use thereof as agricultural and horticultural fungicides” (priority 2004, published 2007)
Some entries share one result that the patent states for a list of compounds.

Columns and labels:
Type in all cases: in vivo
Alternaria mali = experiment: Test for effect of foliage application against Alternaria mali (detached leaves); details: 500 ppm, sprayed on detached leaves one day before inoculation; evaluated four days after inoculation
Pyricularia oryzae = details: 500 ppm, sprayed on paddy rice at 1.5-2 leaf stage one day before inoculation; evaluated seven days after inoculation
Sphaerotheca fuliginea = experiment: Test for effect of foliage application against Sphaerotheca fuliginea; details: 500 ppm, sprayed on cucumber seedlings one day before inoculation; evaluated seven days after inoculation
Phytophthora infestans = details: 500 ppm, sprayed on tomato seedlings at 2-3 leaf stage one day before inoculation; evaluated four days after inoculation

SMILES	controlling value (Alternaria mali)	controlling value (Pyricularia oryzae)	controlling value (Sphaerotheca fuliginea)	controlling value (Phytophthora infestans)
Clc1ncnc(N2CCC=N2)c1Cc1ccccc1 [Compound 1-42]	more than 80%	–	–	–
Fc1cccc(Cc2c(Cl)ncnc2N2CCCC2)c1 [Compound 1-56, 4-Chloro-5-(3-fluorobenzyl)-6-pyrrolidin-1-yl-pyrimidine]	–	more than 80%	–	–
Clc1ccccc1Cc1c(Cl)ncnc1N1CCCC1 [Compound 1-46]	more than 80%	–	more than 80%	–
CC1CCCN1c1ncnc(Cl)c1Cc1ccc(F)c(F)c1 (stereo not shown) [Compound 1-16]	–	more than 80%	more than 80%	–
Cc1cc(C)n(-c2nc(C)nc(Cl)c2Cc2ccccc2)n1 [Compound 1-523]	more than 80%	–	–	–
Fc1cccc(Cc2cncnc2N2CCCC2)c1 [Compound 1-102, 5-(3-fluorobenzyl)-4-pyrrolidin-1-yl-pyrimidine]	–	more than 80%	–	–
CC1CCCN1c1ncnc(Cl)c1Cc1ccccc1 (stereo not shown) [Compound 1-11]	–	more than 80%	more than 80%	–
CC1C=CC(C)N1c1ncnc(Cl)c1Cc1ccccc1 (stereo not shown) [Compound 1-36]	more than 80%	more than 80%	–	–
Clc1ncnc(N2CC=CC2)c1Cc1ccccc1 [Compound 1-33]	more than 80%	more than 80%	–	–
Fc1ccc(Cc2c(Cl)ncnc2N2CCCC2)cc1 [Compound 1-68]	–	more than 80%	more than 80%	–
CC1CCCN1c1ncnc(Cl)c1Cc1cccc(F)c1 (stereo not shown) [Compound 1-14]	more than 80%	more than 80%	more than 80%	–
Fc1ccccc1Cc1c(Cl)ncnc1N1CCCC1 [Compound 1-45]	–	more than 80%	–	–
Clc1nc(-c2ccccn2)nc(N2CCCC2)c1Cc1ccccc1 [Compound 1-238]	–	more than 80%	–	more than 80%
CC(c1ccccc1)c1c(Cl)ncnc1N1CCCC1 (racemic) [Compound 1-6]	–	–	more than 80%	–
Clc1cccc(Cc2c(Cl)ncnc2N2CCCC2)c1 [Compound 1-57]	–	more than 80%	more than 80%	–
Fc1cc(F)cc(Cc2c(Cl)ncnc2N2CCCC2)c1 [Compound 1-87]	–	more than 80%	more than 80%	–
Fc1ccc(Cc2c(Cl)ncnc2N2CCCC2)cc1F [Compound 1-86]	–	more than 80%	more than 80%	–
CC1CCCN1c1ncnc(Cl)c1Cc1cccc(Cl)c1 (stereo not shown) [Compound 1-15]	–	more than 80%	more than 80%	–
Clc1cccc(Cc2c(Cl)ncnc2N2CCSC2)c1 [Compound 1-41]	more than 80%	–	–	–
Clc1nc(-c2cnccn2)nc(N2CCCC2)c1Cc1ccccc1 [Compound 1-311]	more than 80%	–	–	–
Clc1nc(-n2cncn2)nc(N2CCCC2)c1Cc1ccccc1 [Compound 1-435]	more than 80%	–	–	–
OC[C@H]1CCCN1c1ncnc(Cl)c1Cc1ccccc1 [Compound 1-22]	–	more than 80%	–	–
Clc1ncnc(N2CCCC2)c1Cc1ccccc1 [Compound 1-5, 5-benzyl-4-chloro-6-pyrrolidin-1-yl-pyrimidine]	–	more than 80%	–	more than 80%
Clc1nc(-c2ccncc2)nc(N2CCCC2)c1Cc1ccccc1 [Compound 1-304]	more than 80%	–	–	–
CC1CCCN1c1ncnc(Cl)c1Cc1cc(F)cc(F)c1 (stereo not shown) [Compound 1-17]	–	more than 80%	more than 80%	–
CSc1nc(Cl)c(Cc2ccccc2)c(N2CCCC2)n1 [Compound 1-165, 5-benzyl-4-chloro-2-methylthio-6-pyrrolidin-1-yl-pyrimidine]	–	–	–	more than 80%
Clc1ncnc(N2CCSC2)c1Cc1ccccc1 [Compound 1-37]	–	more than 80%	–	–
CC(C)(C)c1nc(Cl)c(Cc2ccccc2)c(N2CCCC2)n1 [Compound 1-121]	more than 80%	–	–	–
